Results are given in words; binding and its absence hold for the method and conditions named. In cells and extracts the contact can be indirect. Some entries that bind do so weakly or less than the wild type. For part of these data: Sequences can lack the tags named with a protein.

The values below come from paper PMC5117846.

Assay [1] concerns the target FLAG-CK1α (full-length CK1α) (UniProt P48729). Nature of the assay: co-IP; 293T cells co-transfected with FLAG-CK1α and Myc-HPIP; IP with anti-FLAG monoclonal antibody, immunoblot with anti-myc. Background: Immunoblotting shows a protein as a band on a membrane.
The target is the same in assay [2]. The assay is described as follows: co-IP; series of mutant FLAG-CK1α fusion proteins used in IP experiments; the legend of Figure 2f says GST pull-down as in Figure 2e.
For a further assay, the target named is T1, CK1α (1–285) (UniProt P48729).
T1 sequence: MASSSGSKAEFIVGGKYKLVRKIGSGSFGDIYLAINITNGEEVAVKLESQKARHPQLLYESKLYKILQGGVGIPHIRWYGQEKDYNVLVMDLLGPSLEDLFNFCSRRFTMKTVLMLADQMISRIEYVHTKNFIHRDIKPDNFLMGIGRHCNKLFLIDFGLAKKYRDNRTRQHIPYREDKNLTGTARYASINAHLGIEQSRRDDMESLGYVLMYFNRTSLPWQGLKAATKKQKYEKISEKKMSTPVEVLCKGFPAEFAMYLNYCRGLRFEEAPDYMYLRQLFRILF
Described as above.

B1: Myc-HPIP (protein, UniProt Q96AQ6 1-731)
chain: MASCPDSDNSWVLAGSESLPVETLGPASRMDPESERALQAPHSPSKTDGKELAGTMDGEGTLFQTESPQSGSILTEETEVKGTLEGDVCGVEPPGPGDTVVQGDLQETTVVTGLGPDTQDLEGQSPPQSLPSTPKAAWIREEGRCSSSDDDTDVDMEGLRRRRGREAGPPQPMVPLAVENQAGGEGAGGELGISLNMCLLGALVLLGLGVLLFSGGLSESETGPMEEVERQVLPDPEVLEAVGDRQDGLREQLQAPVPPDSVPSLQNMGLLLDKLAKENQDIRLLQAQLQAQKEELQSLMHQPKGLEEENAQLRGALQQGEAFQRALESELQQLRARLQGLEADCVRGPDGVCLSGGRGPQGDKAIREQGPREQEPELSFLKQKEQLEAEAQALRQELERQRRLLGSVQQDLERSLQDASRGDPAHAGLAELGHRLAQKLQGLENWGQDPGVSANASKAWHQKSHFQNSREWSGKEKWWDGQRDRKAEHWKHKKEESGRERKKNWGGQEDREPAGRWKEGRPRVEESGSKKEGKRQGPKEPPRKSGSFHSSGEKQKQPRWREGTKDSHDPLPSWAELLRPKYRAPQGCSGVDECARQEGLTFFGTELAPVRQQELASLLRTYLARLPWAGQLTKELPLSPAFFGEDGIFRHDRLRFRDFVDALEDSLEEVAVQQTGDDDEVDDFEDFIFSHFFGDKALKKRSGKKDKHSQSPRAAGPREGHSHSHHHHHRG
Take B1: the binding result in assay [1] was “binds”.

B2: HPIP (in the CK1α mapping experiment of Figure 2f) (protein, UniProt Q96AQ6 1-731)
chain: MASCPDSDNSWVLAGSESLPVETLGPASRMDPESERALQAPHSPSKTDGKELAGTMDGEGTLFQTESPQSGSILTEETEVKGTLEGDVCGVEPPGPGDTVVQGDLQETTVVTGLGPDTQDLEGQSPPQSLPSTPKAAWIREEGRCSSSDDDTDVDMEGLRRRRGREAGPPQPMVPLAVENQAGGEGAGGELGISLNMCLLGALVLLGLGVLLFSGGLSESETGPMEEVERQVLPDPEVLEAVGDRQDGLREQLQAPVPPDSVPSLQNMGLLLDKLAKENQDIRLLQAQLQAQKEELQSLMHQPKGLEEENAQLRGALQQGEAFQRALESELQQLRARLQGLEADCVRGPDGVCLSGGRGPQGDKAIREQGPREQEPELSFLKQKEQLEAEAQALRQELERQRRLLGSVQQDLERSLQDASRGDPAHAGLAELGHRLAQKLQGLENWGQDPGVSANASKAWHQKSHFQNSREWSGKEKWWDGQRDRKAEHWKHKKEESGRERKKNWGGQEDREPAGRWKEGRPRVEESGSKKEGKRQGPKEPPRKSGSFHSSGEKQKQPRWREGTKDSHDPLPSWAELLRPKYRAPQGCSGVDECARQEGLTFFGTELAPVRQQELASLLRTYLARLPWAGQLTKELPLSPAFFGEDGIFRHDRLRFRDFVDALEDSLEEVAVQQTGDDDEVDDFEDFIFSHFFGDKALKKRSGKKDKHSQSPRAAGPREGHSHSHHHHHRG
Consider B2, for which the binding entry (in assay [2]; with CK1α (1–285)) was “binds” in each case.
